Assay results published in patent US11253594B2, “Drug combinations for protecting against neuronal cell death” (UNIVERSITY OF PITTSBURGH-OF THE COMMONWEALTH SYSTEM OF …, priority 2017, dated 2022).
Where a name gives a salt, the structure may show the parent alone. At least one compound was matched to its structure with a doubt left. Some entries repeat one wording, which the source may state once for all of them. Some entries share one result that the patent states for a list of compounds.

Legend:
[1] = system: cAMP levels in STHdh^Q111 cells; experiment: cAMP Enzyme Immunoassay; conditions: for increase in cAMP over the DMSO control: 15 minutes after compound treatment in the presence of serum
[2] = system: STHdh^Q111 cells; experiment: 384-well PI (propidium iodide) assay, protection from mHTT induced cell death; type: cell-based, mouse; conditions: compound titrations, serum deprived STHdh^Q111 cells
Method: The well-established STHdh^Q111 cell model for HD was employed to identify compounds that can protect neuronal cells from mHTT-dependent cell death. […] The propidium iodide (PI) readout enables an unbiased assessment of cell death by measuring an irreversible step that is common to all cytotoxic mechanisms.
The stress conditions for testing compounds involved incubation of the cells in serum-free medium at 37° C. and 5% CO2.
Prior to compound treatment, medium was removed and the cells washed once with PBS (pH=7.4) after which 45 μl of complete medium was added. Compounds in 5 μl complete medium were added to cells. […] Compounds in serum free medium (5 μl) were added and cells were incubated at 37° C. and 5% CO2.
Image analysis was carried out using the Multiwavelength Cell Scoring application in the MetaXpress software. The nuclear compartment was identified in Ch1 with a threshold intensity of 2,000 above background and the Texas Red compartment was identified in Ch2 with a threshold intensity of 20,000 above background.
For the analyses presented here the Percent Recovery was calculated from the Percent PI positive cells by:
[formula] where positive controls are the STHdh^Q7 cells, and negative controls are the STHdh^Q111 cells treated with DMSO
The LOPAC library was screened in the 384-well PI assay at 30, 10, and 3 μM.

Compound	increase in cAMP over the DMSO control [1] [fold]	neuroprotective activity in the PI assay [2]	statistical significance of change in cAMP levels ([1]; 15 and 30 minutes, t-test vs DMSO)
CN1[C@@H]2CC[C@H]1C[C@@H](OC(c1ccccc1)c1ccccc1)C2 [Benztropine mesylate]	≥ 2		
C[C@H]1C[C@H]2[C@@H]3CCC4=CC(=O)C=C[C@]4(C)[C@@]3(F)[C@@H](O)C[C@]2(C)[C@@]1(O)C(=O)CO [Betamethasone]		confirmed neuroprotective activity	
CCCC1O[C@@H]2C[C@H]3[C@@H]4CCC5=CC(=O)C=C[C@]5(C)[C@H]4[C@@H](O)C[C@]3(C)[C@]2(C(=O)CO)O1 (stereo partly drawn) [Budesonide]		confirmed neuroprotective activity	
CC(C)C(=O)Nc1ccc([N+](=O)[O-])c(C(F)(F)F)c1 [Flutamide]		confirmed neuroprotective activity	
CCC(NC(C)C)C(O)c1ccc(O)c(O)c1 (stereo not drawn) [Isotharine mesylate]	≥ 2		
CN1CCN(C2=Nc3ccccc3Oc3ccc(Cl)cc32)CC1 [Loxapine succinate]	≥ 2		
COc1ccc(Cc2nccc3cc(OC)c(OC)cc23)cc1OC [Papaverine hydrochloride]	≥ 2		
C=C[C@@]1(C)CC(=O)[C@]2(O)[C@@]3(C)[C@@H](O)CCC(C)(C)[C@@H]3[C@H](O)[C@H](OC(C)=O)[C@@]2(C)O1 [forskolin]		nor did it show any protective effects	significantly induced
